{"source": "the supplement of paper PMC12067093", "about": "“Discovery and optimisation of a covalent ligand for TRIM25 and its application to targeted protein ubiquitination” (Chemical Science, 2025)", "note": "This is one part of the list.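 Further: competitive chemoproteomic profiling in live THP-1 cells with an iodoacetamide desthiobiotin (IA-DTB) probe, comparing probe-labelled peptide intensities in compound-treated cells against DMSO-treated controls.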", "data": [{"compound": "CC1Cc2ccccc2N1C(=O)C1CCCN(C1)C(=O)CCl (mixture of isomers) [TRIM25 ligand 11 (diastereomer mixture)]", "assay": "probe-labelled cysteine peptide fold change vs DMSO (competition) (log2 fold change); higher = less target engagement (more negative = stronger competition)", "conditions": "10 µM; THP-1; incubation time: 4 h", "values": [{"target": "BAZ1B_Q9UIG0_994_QGQNLWFLCDSQK (UniProt Q9UIG0)", "probe-labelled cysteine peptide fold change": -0.0254}, {"target": "BCOR_Q6W2J9_1525_HLLEYGADVNCSAQDGTRPLHDAVENDHLEIVR (UniProt Q6W2J9)", "probe-labelled cysteine peptide fold change": 0.055}, {"target": "BCKDHB_P21953_228_GLLLSCIEDK (UniProt P21953)", "probe-labelled cysteine peptide fold change": 0.0405}, {"target": "BLM_P54132_468_ELNFSHLPSNSVSPGDCLLTTTLGK (UniProt P54132)", "probe-labelled cysteine peptide fold change": -0.211}, {"target": "BABAM2_Q9NXR7_129_ELVQQYHQFQCSR (UniProt Q9NXR7)", "probe-labelled cysteine peptide fold change": 0.335}, {"target": "BOP1_Q14137_108_TTEEQVQASTPCPR (UniProt Q14137)", "probe-labelled cysteine peptide fold change": -0.161}, {"target": "BOD1L1_Q8NFC6_1618_EGESGECAVAESEDR (UniProt Q8NFC6)", "probe-labelled cysteine peptide fold change": -0.0437}, {"target": "BPNT1_O95861_206_LVTDCVAAMNPDAVLR (UniProt O95861)", "probe-labelled cysteine peptide fold change": -0.0832}, {"target": "BOD1L1_Q8NFC6_2694_NGEILAPPESLCGGKPSGIAELQR (UniProt Q8NFC6)", "probe-labelled cysteine peptide fold change": -0.201}, {"target": "BIRC6_Q9NR09_3773_TAIENATVAFFLQCISCHPNNQK (UniProt Q9NR09)", "probe-labelled cysteine peptide fold change": 0.0154}, {"target": "BAP18_Q8IXM2_66_RFGDDLNHISCVIK (UniProt Q8IXM2)", "probe-labelled cysteine peptide fold change": -0.0617}, {"target": "BAG1_Q99933_213_EMETPLSALGIQDGCR (UniProt Q99933)", "probe-labelled cysteine peptide fold change": -0.139}, {"target": "BARGIN_Q6ZT62_213_RKVEQCRDEYLADLYHFVTK (UniProt Q6ZT62)", "probe-labelled cysteine peptide fold change": -0.186}, {"target": "ATXN7L3_Q14CW9_226_CPQHTDEQRR (UniProt Q14CW9)", "probe-labelled cysteine peptide fold change": -0.0529}, {"target": "BAHD1_Q8TBE0_598_TNGWVPVGAACEK (UniProt Q8TBE0)", "probe-labelled cysteine peptide fold change": 0.124}, {"target": "BLNK_Q8WV28_271_TTPVASQQNASSVCEEKPIPAER (UniProt Q8WV28)", "probe-labelled cysteine peptide fold change": 0.0403}, {"target": "BPNT1_O95861_42_TCATDLQTK (UniProt O95861)", "probe-labelled cysteine peptide fold change": -0.0574}, {"target": "BCLAF1_Q9NYF8_688_LRCDSADLR (UniProt Q9NYF8)", "probe-labelled cysteine peptide fold change": -0.15}, {"target": "BCL7C_Q8WUZ0_211_RICPNAPDP (UniProt Q8WUZ0)", "probe-labelled cysteine peptide fold change": -0.116}, {"target": "BCL2L12_Q9HB09_266_ACPGPPPPSPEPLAR (UniProt Q9HB09)", "probe-labelled cysteine peptide fold change": -0.118}, {"target": "BAG6_P46379_856_TNLEFLQEQFNSIAAHVLHCTDSGFGAR (UniProt P46379)", "probe-labelled cysteine peptide fold change": -0.0233}, {"target": "ATXN2_Q99700_892_RGPEVTSQGVQTSSPACK (UniProt Q99700)", "probe-labelled cysteine peptide fold change": -0.0754}, {"target": "BIRC6_Q9NR09_2910_AVCGEMTR (UniProt Q9NR09)", "probe-labelled cysteine peptide fold change": 0.109}, {"target": "BAZ1A_Q9NRL2_232_QHCEPQDGVIK (UniProt Q9NRL2)", "probe-labelled cysteine peptide fold change": -0.0384}, {"target": "B2M_P61769_45_SNFLNCYVSGFHPSDIEVDLLK (UniProt P61769)", "probe-labelled cysteine peptide fold change": 0.0228}, {"target": "BOP1_Q14137_620_KLMPNCK (UniProt Q14137)", "probe-labelled cysteine peptide fold change": -0.191}, {"target": "BAG1_Q99933_330_VQAFLAECDTVEQNICQETER (UniProt Q99933)", "probe-labelled cysteine peptide fold change": 0.508}, {"target": "BIRC6_Q9NR09_4666_VCLSILNTWHGRPEEK (UniProt Q9NR09)", "probe-labelled cysteine peptide fold change": 0.0292}, {"target": "BCAT1_P54687_293_CILDLAHQWGEFK (UniProt P54687)", "probe-labelled cysteine peptide fold change": -0.0437}, {"target": "BOLA2B_Q9H3K6_59_LVNACLAEELPHIHAFEQK (UniProt Q9H3K6)", "probe-labelled cysteine peptide fold change": -0.108}, {"target": "B4GALT3_O60512_119_YRPAGCEPR (UniProt O60512)", "probe-labelled cysteine peptide fold change": -0.106}, {"target": "BICD2_Q8TD16_544_KVSDVAGETQGSLSVAQDELVTFSEELANLYHHVCMCNNETPNR (UniProt Q8TD16)", "probe-labelled cysteine peptide fold change": -0.349}, {"target": "BCKDK_O14874_152_DQADEAQYCQLVR (UniProt O14874)", "probe-labelled cysteine peptide fold change": 0.0646}, {"target": "BAZ1B_Q9UIG0_1202_LILCDECNK (UniProt Q9UIG0)", "probe-labelled cysteine peptide fold change": 0.0442}, {"target": "BAIAP2_Q9UQB8_202_QCAVAK (UniProt Q9UQB8)", "probe-labelled cysteine peptide fold change": -0.159}, {"target": "B4GALT3_O60512_209_EALRDEEWDCLFLHDVDLLPENDHNLYVCDPR (UniProt O60512)", "probe-labelled cysteine peptide fold change": 0.0102}, {"target": "BAHD1_Q8TBE0_764_TVPEDTDPELVFLCR (UniProt Q8TBE0)", "probe-labelled cysteine peptide fold change": 0.0489}]}, {"compound": "CC1Cc2ccccc2N1C(=O)C1CCCN(C1)C(=O)CCl (mixture of isomers) [TRIM25 ligand 11 (diastereomer mixture)]", "assay": "probe-labelled cysteine peptide fold change vs DMSO (competition) (log2 fold change); higher = less target engagement (more negative = stronger competition)", "conditions": "50 µM; THP-1; incubation time: 4 h", "values": [{"target": "BAZ1B_Q9UIG0_994_QGQNLWFLCDSQK (UniProt Q9UIG0)", "probe-labelled cysteine peptide fold change": -0.0149}, {"target": "BCOR_Q6W2J9_1525_HLLEYGADVNCSAQDGTRPLHDAVENDHLEIVR (UniProt Q6W2J9)", "probe-labelled cysteine peptide fold change": 0.173}, {"target": "BCKDHB_P21953_228_GLLLSCIEDK (UniProt P21953)", "probe-labelled cysteine peptide fold change": 0.119}, {"target": "BLM_P54132_468_ELNFSHLPSNSVSPGDCLLTTTLGK (UniProt P54132)", "probe-labelled cysteine peptide fold change": -0.141}, {"target": "BABAM2_Q9NXR7_129_ELVQQYHQFQCSR (UniProt Q9NXR7)", "probe-labelled cysteine peptide fold change": 0.209}, {"target": "BOP1_Q14137_108_TTEEQVQASTPCPR (UniProt Q14137)", "probe-labelled cysteine peptide fold change": -0.298}, {"target": "BOD1L1_Q8NFC6_1618_EGESGECAVAESEDR (UniProt Q8NFC6)", "probe-labelled cysteine peptide fold change": -0.13}, {"target": "BPNT1_O95861_206_LVTDCVAAMNPDAVLR (UniProt O95861)", "probe-labelled cysteine peptide fold change": -0.0713}, {"target": "BOD1L1_Q8NFC6_2694_NGEILAPPESLCGGKPSGIAELQR (UniProt Q8NFC6)", "probe-labelled cysteine peptide fold change": -0.158}, {"target": "BIRC6_Q9NR09_3773_TAIENATVAFFLQCISCHPNNQK (UniProt Q9NR09)", "probe-labelled cysteine peptide fold change": 0.082}, {"target": "BAP18_Q8IXM2_66_RFGDDLNHISCVIK (UniProt Q8IXM2)", "probe-labelled cysteine peptide fold change": -0.448}, {"target": "BAG1_Q99933_213_EMETPLSALGIQDGCR (UniProt Q99933)", "probe-labelled cysteine peptide fold change": -0.109}, {"target": "BARGIN_Q6ZT62_213_RKVEQCRDEYLADLYHFVTK (UniProt Q6ZT62)", "probe-labelled cysteine peptide fold change": -0.111}, {"target": "ATXN7L3_Q14CW9_226_CPQHTDEQRR (UniProt Q14CW9)", "probe-labelled cysteine peptide fold change": 0.0377}, {"target": "BAHD1_Q8TBE0_598_TNGWVPVGAACEK (UniProt Q8TBE0)", "probe-labelled cysteine peptide fold change": 0.0893}, {"target": "BLNK_Q8WV28_271_TTPVASQQNASSVCEEKPIPAER (UniProt Q8WV28)", "probe-labelled cysteine peptide fold change": -0.105}, {"target": "BPNT1_O95861_42_TCATDLQTK (UniProt O95861)", "probe-labelled cysteine peptide fold change": -0.188}, {"target": "BCLAF1_Q9NYF8_688_LRCDSADLR (UniProt Q9NYF8)", "probe-labelled cysteine peptide fold change": -0.12}, {"target": "BCL7C_Q8WUZ0_211_RICPNAPDP (UniProt Q8WUZ0)", "probe-labelled cysteine peptide fold change": -0.0903}, {"target": "BCL2L12_Q9HB09_266_ACPGPPPPSPEPLAR (UniProt Q9HB09)", "probe-labelled cysteine peptide fold change": -0.397}, {"target": "BAG6_P46379_856_TNLEFLQEQFNSIAAHVLHCTDSGFGAR (UniProt P46379)", "probe-labelled cysteine peptide fold change": -0.127}, {"target": "ATXN2_Q99700_892_RGPEVTSQGVQTSSPACK (UniProt Q99700)", "probe-labelled cysteine peptide fold change": -0.146}, {"target": "BIRC6_Q9NR09_2910_AVCGEMTR (UniProt Q9NR09)", "probe-labelled cysteine peptide fold change": 0.0225}, {"target": "BAZ1A_Q9NRL2_232_QHCEPQDGVIK (UniProt Q9NRL2)", "probe-labelled cysteine peptide fold change": -0.047}, {"target": "B2M_P61769_45_SNFLNCYVSGFHPSDIEVDLLK (UniProt P61769)", "probe-labelled cysteine peptide fold change": -0.192}, {"target": "BOP1_Q14137_620_KLMPNCK (UniProt Q14137)", "probe-labelled cysteine peptide fold change": -0.0748}, {"target": "BAG1_Q99933_330_VQAFLAECDTVEQNICQETER (UniProt Q99933)", "probe-labelled cysteine peptide fold change": -0.011}, {"target": "BIRC6_Q9NR09_4666_VCLSILNTWHGRPEEK (UniProt Q9NR09)", "probe-labelled cysteine peptide fold change": -0.000835}, {"target": "BCAT1_P54687_293_CILDLAHQWGEFK (UniProt P54687)", "probe-labelled cysteine peptide fold change": -0.0238}, {"target": "BOLA2B_Q9H3K6_59_LVNACLAEELPHIHAFEQK (UniProt Q9H3K6)", "probe-labelled cysteine peptide fold change": 0.00725}, {"target": "B4GALT3_O60512_119_YRPAGCEPR (UniProt O60512)", "probe-labelled cysteine peptide fold change": 0.182}, {"target": "BICD2_Q8TD16_544_KVSDVAGETQGSLSVAQDELVTFSEELANLYHHVCMCNNETPNR (UniProt Q8TD16)", "probe-labelled cysteine peptide fold change": -0.194}, {"target": "BCKDK_O14874_152_DQADEAQYCQLVR (UniProt O14874)", "probe-labelled cysteine peptide fold change": -0.0605}, {"target": "BAZ1B_Q9UIG0_1202_LILCDECNK (UniProt Q9UIG0)", "probe-labelled cysteine peptide fold change": 0.201}, {"target": "BAIAP2_Q9UQB8_202_QCAVAK (UniProt Q9UQB8)", "probe-labelled cysteine peptide fold change": -0.0335}, {"target": "B4GALT3_O60512_209_EALRDEEWDCLFLHDVDLLPENDHNLYVCDPR (UniProt O60512)", "probe-labelled cysteine peptide fold change": -0.078}, {"target": "BAHD1_Q8TBE0_764_TVPEDTDPELVFLCR (UniProt Q8TBE0)", "probe-labelled cysteine peptide fold change": 0.0905}]}]}
